Measurements as given in patent publication US7385088B1, “Compounds from Antrodia camphorata” (Golden Biotechnology Corporation, priority 2007, dated 2008).

Experiments:
Assay type in all cases: cell-based, human
MCF-7 = assay: MTT survival assay, breast cancer cells MCF-7; conditions: relative to crude extract IC50 11.13 μg/ml
Text: (§1) Therefore Antroquinonol B and Antroquinonol C can be used in inhibiting cancer cell growth of breast cancer, lung cancer, hepatic cancer, and prostate cancer, which can further be applied in cancer treatment of breast cancer, lung cancer, hepatic cancer, prostate cancer and the like. The details of the examples are described as follows: The NCI anti-cancer drug screen model was adopted to test the anti-cancer effect of the isolated compounds from example 1 in the present invention. The isolated Antroquinonol B and Antroquinonol C from example 1 were added into the culture media of human breast-cancer cells, MCF-7 or MDA-MB-231, to test for tumor cell survival. This survival assay was carried out with the widely known MTT (3-[4,5-dimethylthiazol-2-yl]2,5-diphenyltetrazolium bromide) assay. MCF-7 cell line is originated from primary breast cancer cells (early stage), sensitive to estrogen and therefore is estrogen-dependent, while MDA-MB-231 is insensitive to estrogen and therefore is estrogen-independent, which is a difficult tumor with a low survival rate. MTT assay is commonly used to determine cell proliferation, percent of viable cells, and cytotoxicity. […] The plates were read on an ELISA reader at wavelength of 570 nm to determine the survival rates.

DU-145 = assay: MTT survival assay, prostate cancer cells DU-145; conditions: relative to control group IC50 41.39 μg/ml
Text: (§2) Therefore Antroquinonol B and Antroquinonol C can be used in inhibiting cancer cell growth of breast cancer, lung cancer, hepatic cancer, and prostate cancer, which can further be applied in cancer treatment of breast cancer, lung cancer, hepatic cancer, prostate cancer and the like. The details of the examples are described as follows:
(§3) MTT assay is commonly used to determine cell proliferation, percent of viable cells, and cytotoxicity. 3-[4,5-dimethylthiazol-2-yl]2,5-diphenyltetrazolium bromide (MTT) is a yellow dye, which can be absorbed by the living cells and be reduced to purplish blue formazan crystals by succinate tetrazolium reductase in mitochondria. Formazan formation can therefore be used to assess and determine the survival rate of cells.
(§4) The NCI anti-cancer drug screen model was also employed to test the anti-cancer effect of the Antroquinonols in the present invention. Antroquinonol B and Antroquinonol C isolated from example 2 were added into the culture media of human prostate cancer cells, LNCaP or DU-145, and prostate cancer cell survival rates were analyzed with the abovementioned MTT assay. […]
(§5) The human prostate-cancer cells, LNCaP and DU-145, were cultivated in media containing fetal calf serum for 24 hours. […] The plates were read on an ELISA reader at wavelength of 570 nm to determine the survival rates.

Hep3B = assay: MTT survival assay, hepatic cancer cells Hep 3B; conditions: relative to crude extract IC50 5.10
Text: (§6) Therefore Antroquinonol B and Antroquinonol C can be used in inhibiting cancer cell growth of breast cancer, lung cancer, hepatic cancer, and prostate cancer, which can further be applied in cancer treatment of breast cancer, lung cancer, hepatic cancer, prostate cancer and the like. The details of the examples are described as follows: MTT assay is commonly used to determine cell proliferation, percent of viable cells, and cytotoxicity. 3-[4,5-dimethylthiazol-2-yl]2,5-diphenyltetrazolium bromide (MTT) is a yellow dye, which can be absorbed by the living cells and be reduced to purplish blue formazan crystals by succinate tetrazolium reductase in mitochondria. Formazan formation can therefore be used to assess and determine the survival rate of cells. The NCI anti-cancer drug screen model was employed to test the anti-cancer effect of the Antroquinonol B and Antroquinono C in the present invention. The Antroquinonos isolated from example 1 were added into the culture media of human hepatic-cancer cells, Hep 3B or Hep G2, for tumor cell survival assay. Hepatic-cancer cells Hep 3B (BCRC 60434) and Hep G2 (BCRC 60025), were obtained from the Bioresources Collection and Research Center (BCRC) of the Food Industry Research and Development Institute. […] The plates were read on an ELISA reader at wavelength of 570 nm to determine the survival rates.

HepG2 = assay: MTT survival assay, hepatic cancer cells Hep G2; conditions: relative to crude extract IC50 18.63 μg/ml
Text: as §6

LNCaP = assay: MTT survival assay, prostate cancer cells LNCaP; conditions: relative to control group IC50 11.49 μg/ml
Text: as §2, §3, §4, §5

MDA-MB-231 = assay: MTT survival assay, breast cancer cells MDA-MB-231; conditions: relative to crude extract IC50 25.81 μg/ml
Text: as §1

A549 = assay: MTT survival assay, lung cancer cells A549; conditions: relative to crude extract IC50 13.21 μg/ml
Text: Therefore Antroquinonol B and Antroquinonol C can be used in inhibiting cancer cell growth of breast cancer, lung cancer, hepatic cancer, and prostate cancer, which can further be applied in cancer treatment of breast cancer, lung cancer, hepatic cancer, prostate cancer and the like. The details of the examples are described as follows: MTT assay is commonly used to determine cell proliferation, percent of viable cells, and cytotoxicity. 3-[4,5-dimethylthiazol-2-yl]2,5-diphenyltetrazolium bromide (MTT) is a yellow dye, which can be absorbed by the living cells and be reduced to purplish blue formazan crystals by succinate tetrazolium reductase in mitochondria. Formazan formation can therefore be used to assess and determine the survival rate of cells. The NCI anti-cancer drug screen model was also employed to test the anti-lung cancer effect of the Antroquinonol B and Antroquinonol C in the present invention. The Antroquinonols isolated from example 1 were added into the culture media of human lung cancer cell A549 with the abovementioned MTT assay to analyze lung cancer cell survival rates. Human lung cancer cell A549 was obtained from the Bioresources Collection and Research Center (BCRC) of the Food Industry Research and Development Institute with an accession number of BCRC 60074. […] The plates were read on an ELISA reader at wavelength of 570 nm to determine the survival rates.

SMILES | IC50 lower than that of crude extracts from A. camphorata, MCF-7 (MCF-7) [%] | IC50 lower than the IC50 value of the control group, DU-145 (DU-145) [%] | IC50 lower than that of crude extracts from A. camphorata, Hep 3B (Hep3B) [%] | IC50 lower than that of crude extracts from A. camphorata, Hep G2 (HepG2) [%] | IC50 lower than the IC50 value of the control group, LNCaP (LNCaP) [%] | IC50 lower than that of crude extracts from A. camphorata, MDA-MB-231 (MDA-MB-231) [%] | IC50 lower than that of crude extracts from A. camphorata, A549 (A549) [%]
COC1=C(OC)[C@H](O)[C@H](C/C=C(\C)CC/C=C(/C)C/C=C/C(C)(C)OC)[C@@H](C)C1=O [Antroquinonol C] | 89.49 | 70.5 | 74.12 | 72.52 | 24.11 | 15.15 | 37.85
COC1=C(OC)[C@H](O)[C@H](C/C=C(\C)CC/C=C(/C)C/C=C/C(C)(C)O)[C@@H](C)C1=O [Antroquinonol B] | 82.56 | 75.55 | 76.27 | 82.18 | 50.65 | 66.21 | 9.92
